Assay results: PMC11065752

Amino acid sequences for entries named in this document (tags omitted).
UniProt Q08J23: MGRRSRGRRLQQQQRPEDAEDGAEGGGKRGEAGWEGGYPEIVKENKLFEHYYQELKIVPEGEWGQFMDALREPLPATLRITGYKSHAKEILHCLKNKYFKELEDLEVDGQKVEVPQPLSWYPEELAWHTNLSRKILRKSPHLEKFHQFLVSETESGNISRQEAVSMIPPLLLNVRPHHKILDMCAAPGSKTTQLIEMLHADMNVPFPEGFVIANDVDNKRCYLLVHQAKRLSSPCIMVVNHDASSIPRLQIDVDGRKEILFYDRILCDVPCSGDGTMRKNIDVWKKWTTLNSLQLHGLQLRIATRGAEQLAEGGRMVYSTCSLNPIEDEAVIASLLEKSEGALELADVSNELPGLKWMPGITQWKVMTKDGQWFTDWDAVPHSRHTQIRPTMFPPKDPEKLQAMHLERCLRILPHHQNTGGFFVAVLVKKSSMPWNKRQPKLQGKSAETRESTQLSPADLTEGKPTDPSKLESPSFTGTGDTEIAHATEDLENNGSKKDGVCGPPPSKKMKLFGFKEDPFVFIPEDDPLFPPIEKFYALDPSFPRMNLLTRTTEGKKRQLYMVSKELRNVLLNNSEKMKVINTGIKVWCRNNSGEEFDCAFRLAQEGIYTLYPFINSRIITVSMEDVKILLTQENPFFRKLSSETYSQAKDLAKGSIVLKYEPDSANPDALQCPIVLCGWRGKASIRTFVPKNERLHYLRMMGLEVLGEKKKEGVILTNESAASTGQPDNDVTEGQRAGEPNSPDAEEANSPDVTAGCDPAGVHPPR
UniProt P67809: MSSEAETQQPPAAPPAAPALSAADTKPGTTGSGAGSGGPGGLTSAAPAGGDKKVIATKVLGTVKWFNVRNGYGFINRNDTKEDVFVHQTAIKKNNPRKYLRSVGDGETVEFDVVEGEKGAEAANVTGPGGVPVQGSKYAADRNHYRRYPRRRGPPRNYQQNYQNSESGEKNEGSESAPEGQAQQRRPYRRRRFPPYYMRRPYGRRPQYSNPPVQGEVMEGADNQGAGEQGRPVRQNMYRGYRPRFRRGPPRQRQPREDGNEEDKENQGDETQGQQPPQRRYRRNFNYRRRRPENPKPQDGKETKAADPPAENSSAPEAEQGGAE

Biological target: NOP2/Sun RNA methyltransferase family member 2 (NSUN2), flag-tagged (UniProt Q08J23)
Assay: affinity purification with mass spectrometry; flag-tagged NSUN2 overexpressed in H1299 cells; flag affinity purification; silver staining; liquid chromatography-mass spectrometry of the immunoprecipitated proteins

binding: binds
Substance: YBX1 (from UniProt P67809 1-324)

No constants are given. Whether binding was seen depends on the method and setting. Binding seen in cells or lysates may run through a third protein. Here binding means that the protein was enriched with, or labelled near, the bait; the list need not be complete.
